Data as given in the supplement of paper PMC12889115.
The list shows a part of the results. These are raw signals, not scaled to a control.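 In the initial screen, polymyxin B was used at a concentration that permeabilizes Salmonella's outer membrane but not its inner membrane. Maximum growth was set by DMSO wells with or without polymyxin B. Since plates varied, data were ranked per plate, and compounds giving the lowest OD600 advanced as hits.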

Test system: Salmonella enterica serovar Typhimurium SL1344
Assay: bacterial growth OD600 after 18 h with compound and polymyxin B; higher = more bacterial growth (less inhibition)
Conditions: 50 µM, Mueller-Hinton broth

| Compound | bacterial growth OD600 (polymyxin B 0.75 µg/mL) | bacterial growth OD600 (polymyxin B 1 µg/mL) |
| --- | --- | --- |
| O=C(C1CC12CCC2)N1CCc2onc(-c3ccc4c(c3)OCO4)c2C1 (stereo not given) | 0.007 |  |
| COC1CCCN(C(=O)CC2(c3ccccc3C)CC(=O)N(Cc3cccnc3)C2=O)C1 (stereo not given) | 0.845 |  |
| O=C(NCc1ccco1)NC1CC(=O)N(Cc2cccc3ccccc23)C1 (stereo not given) |  | 0.663 |
| CCO[C@H]1[C@H](NC(=O)c2cccnc2)c2ccccc2C12CCN(C(=O)c1n[nH]c3ccccc13)CC2 | 0.877 |  |
| Cc1cnc(SCCN2CCOCC2)nc1C1CCCN(C(=O)COc2ccccc2)C1 (stereo not given) | 0.95 |  |
| CC(=O)NCC1CCCN(C(=O)c2cc(COc3c(C)cccc3C)on2)C1 (stereo not given) |  | 1.01 |
| COc1ccc(CCCN2C(=O)O[C@@H]3CN(Cc4[nH]cnc4C)C[C@@H]32)cc1 |  | 1 |
| Cc1ccc(Cl)cc1N1CCN(C(=O)c2cn(CC3CCCO3)nn2)CC1 (stereo not given) |  | 0.017 |
| O=C(c1cn(CCc2ccccc2)nn1)N1CCC(c2ccccc2Cl)C1 (stereo not given) |  | 0.134 |
| CN(CC1CCOCC1)c1ccc(-c2nc(COc3ccccc3)no2)cn1 |  | 0.854 |
| CCOC(=O)C1(CCOc2ccccc2)CCN(Cc2cccc(OC)c2OC)CC1 |  | 0.908 |
| Fc1cccc(C2CCN(CC3CC3)c3ccccc3S2)c1 (stereo not given) | 0.003 |  |
| CCC(=O)N[C@@H]1c2ccccc2C2(CCN(C(=O)c3cnn(CC)c3)CC2)[C@H]1OCc1cccnc1 | 0.856 |  |
| CCCc1cc(CNC(=O)c2ccc(NC3CCCC3)nc2)on1 |  | 0.815 |
| COCCCN1C(=O)CC(CC(=O)N2CCC(c3ccc(F)cc3)C2)(c2ccccc2Cl)C1=O (stereo not given) | 0.017 |  |
| c1ccc(NC2CCCN(Cc3ccc4c(c3)CCO4)C2)cc1 (stereo not given) |  | 0.788 |
| COc1ccc2c(C)nc(N3CCCC(C(=O)NC4CC4)C3)nc2c1 (stereo not given) | 0.78 |  |
| O=C(CCC1CCN(C(=O)c2ccc(Cn3cnnn3)cc2)CC1)NC1CC1 |  | 1.01 |
| COC(=O)[C@H](Cc1ccccc1)NC(=O)CCC1(Cc2ccc(SC)cc2)CCC(=O)N1 (stereo not given in full) | 0.822 |  |
| CCC(=O)N1CCC(C(=O)Nc2ccc(Oc3ccccc3F)cc2)CC1 |  | 0.909 |

In a second layout: results already given
Compound | bacterial growth OD600 (polymyxin B 0.75 µg/mL) | bacterial growth OD600 (polymyxin B 1 µg/mL)
CCO[C@H]1[C@H](NC(=O)c2cccnc2)c2ccccc2C12CCN(C(=O)c1n[nH]c3ccccc13)CC2 | 0.877 | 
Cc1cnc(SCCN2CCOCC2)nc1C1CCCN(C(=O)COc2ccccc2)C1 (stereo not given) | 0.95 | 
